Measurements reported in patent US20190240316A1.
Results are given in words; binding and its absence hold for the method and conditions named. Binding can be weak; no strength is given.

Legend:
[1] = target: post-fusion F protein from RSV strain 18537 B (human respiratory syncytial virus subgroup B strain 18537); experiment: negative-stain electron microscopy
[2] = target: post-fusion F protein from RSV strain 18537 B (human respiratory syncytial virus subgroup B strain 18537); experiment: negative-stain electron microscopy of the complex

B1: 14N4 fragment antigen-binding region (14N4-Fab) (Fab, V domains shown)
VH: QVQLVESGGGLIQPGGSLRLSCAVSGFTVSSKYMTWVRQAPGKGLEWVSVIYGGGSTYYADSVVGRFTISRDNSKNTLYLQMNSLRAEDTAVYYCASRLGVRATTGDLDYWGQGTLVTVSS
VL: QIVMTQSPSTLSASVGDRVTITCRASQSISSWLAWYQQKPGKAPKLLIYDASSLESGVPSRFSGSGSGTEFTLTISSLQPDDFATYYCQQYNTYSWWTFGQGTKVEIK
[1]
  binding: binds
[2]
  binding: binds
